Laboratory results from patent US6686353B1, “Diarylalkyl cyclic diamine derivatives as chemokine receptor antagonists” (Teijin Intellectual Property Center Limited, priority 1996, dated 2004).
Some of these results come from one statement about several compounds together.

How the values were obtained:
[1] = molecular target: T1, human MIP-1α binding to THP-1 cells (Homo sapiens, UniProt P32246); assay: Inhibition of MIP-1α binding to THP-1 cells; details: at 100 μM test compound
T1 construct: endogenous in cells; host or cells: THP-1 (human monocytic leukemia cell line), whole cells
T1 sequence (P32246 1-355): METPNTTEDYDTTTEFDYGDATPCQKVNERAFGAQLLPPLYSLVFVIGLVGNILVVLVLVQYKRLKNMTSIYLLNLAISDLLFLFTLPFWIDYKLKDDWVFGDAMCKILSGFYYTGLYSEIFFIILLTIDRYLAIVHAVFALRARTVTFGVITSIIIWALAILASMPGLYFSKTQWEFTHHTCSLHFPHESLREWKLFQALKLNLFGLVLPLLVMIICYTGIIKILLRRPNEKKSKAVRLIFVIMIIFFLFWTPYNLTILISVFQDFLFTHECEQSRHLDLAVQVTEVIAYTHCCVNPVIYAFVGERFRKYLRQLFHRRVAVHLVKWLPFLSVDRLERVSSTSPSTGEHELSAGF
Experimental: Measurement of Inhibition of MIP-1α Binding to THP-1 Cells by Test Compounds
Human monocytic leukemia cell line THP-1 was suspended in assay buffer (RPMI-1640 (Gibco-BRL Co.) containing 0.1% BSA and 25 mM HEPES adjusted to pH 7.4) to give a cell suspension of a concentration of 1×10^7 cells/mL. The test compound was diluted in the assay buffer and used as the test compound solution. Iodinated human MIP-1α (DuPont NEN Co.) was diluted in assay buffer to 250 nCi/mL and used as the ligand solution. In a 96 well filter plate (Millipore Co.), 25 μL of test compound solution. 25 μL of labeled ligand solution and 50 μL of cell suspension were aliquoted into each well in this order, stirred (total reaction volume 100 μL), and incubated for one hour at 18° C.
After the reaction, the reaction solution was filtered, and the filter was washed twice with 200 μL of cold PBS (200 μL of cold PBS was added and then filtered). The filter was removed and placed in an RIA tube (Iuchi Seieido Co.) and the radioactivity retained by the cells on the filter were measured using a gamma counter (Aloka Co.).
To calculate the ability of test compounds to inhibit binding of human MIP-1α to THP-1 cells, non-specific binding determined by adding 100 ng of unlabeled human MIP-1α (Peprotech Co.) in place of the test compound was subtracted, while the counts with no test compound added was taken as 100%.
Inhibition (%)=(1−(A−B)/(C−B))×100
(A, counts with test compound added: B, counts with 100 ng of unlabeled human MIP-1α added: C, counts with [^125I]-labeled human MIP-1α added).

[2] = molecular target: T2, human MCP-1 binding to THP-1 cells (Homo sapiens, UniProt P41597); assay: Inhibition of [125I]-labeled human MCP-1 binding to THP-1 cells; details: at 100 μM test compound
T2 construct: endogenous in cells; host or cells: THP-1 (human monocytic leukemia cell line), whole cells
T2 sequence (P41597 1-360 isoform P41597-2): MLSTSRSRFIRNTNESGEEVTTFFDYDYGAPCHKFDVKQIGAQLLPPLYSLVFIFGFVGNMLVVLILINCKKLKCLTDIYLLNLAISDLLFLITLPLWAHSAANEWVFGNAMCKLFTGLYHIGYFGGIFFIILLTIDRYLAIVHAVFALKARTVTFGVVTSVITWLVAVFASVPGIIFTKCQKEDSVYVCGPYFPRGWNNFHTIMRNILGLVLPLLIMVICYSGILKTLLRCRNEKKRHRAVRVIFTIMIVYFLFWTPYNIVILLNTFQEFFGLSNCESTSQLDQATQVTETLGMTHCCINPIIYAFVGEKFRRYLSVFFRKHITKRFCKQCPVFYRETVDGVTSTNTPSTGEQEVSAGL

SMILES | inhibitory activity (inhibition of human MIP-1α binding to THP-1 cells) [1] | inhibitory activity (inhibition of human MCP-1 binding to THP-1 cells) [2]
O=C(CN1CCCN(CCC(c2ccccc2)c2ccccc2)CC1)NNC(=O)c1ccccc1 [Compound No. 78] | > 20% | > 20%
O=C(CN1CCCN(CCC(c2ccccc2)c2ccccc2)CC1)OCc1ccc([N+](=O)[O-])cc1 [Compound No. 80] | > 20% | > 20%
N#CCCCCN1CCCN(CCC(c2ccccc2)c2ccccc2)CC1 [Compound No. 213] | > 20% | > 20%
N#CCCCN1CCCN(CCC(c2ccccc2)c2ccccc2)CC1 [Compound No. 215] | > 20% | > 20%
C#CCN1CCCN(CCC(c2ccccc2)c2ccccc2)CC1 [Compound No. 220] | > 20% | > 20%
O=c1[nH]c2ccccc2n1CCCN1CCCN(CCC(c2ccccc2)c2ccccc2)CC1 [Compound No. 221] | > 20% | > 20%
CC(CO)CN1CCCN(CCC(c2ccccc2)c2ccccc2)CC1 (stereo not shown) [Compound No. 222] | > 20% | > 20%
Cn1cnc2c1c(=O)n(CCCN1CCCN(CCC(c3ccccc3)c3ccccc3)CC1)c(=O)n2C [Compound No. 223] | > 20% | > 20%
Cc1csc(C(=O)NNC(=O)CN2CCCN(CCC(c3ccccc3)c3ccccc3)CC2)c1 [Compound No. 246] | > 20% | > 20%
OC(COCc1ccco1)CN1CCCN(CCC(c2ccccc2)c2ccccc2)CC1 (stereo not shown) [Compound No. 253] | > 20% | > 20%
CCN(CC)C(=O)CN1CCCN(CCC(c2ccccc2)c2ccccc2)CC1 [Compound No. 265] | > 20% | > 20%
O=C(CN1CCCN(CCC(c2ccccc2)c2ccccc2)CC1)N1CCSCC1 [Compound No. 269] | > 20% | > 20%
Clc1ccc(CN2CCCN(CCC(c3ccccc3)c3ccc(Cl)cc3)CC2)cc1 (stereo not shown) [compound 50] | > 20% | > 20%
Fc1ccc(CN2CCCN(CCC(c3ccccc3)c3ccccc3)CC2)cc1 [compound 52] | > 20% | > 20%
CS(=O)(=O)c1ccc(CN2CCCN(CCC(c3ccccc3)c3ccccc3O)CC2)cc1 (stereo not shown) [compound 59] | > 20% | > 20%
Oc1cccc(C(CCN2CCCN(Cc3ccc(Cl)cc3)CC2)c2ccccc2)c1 (stereo not shown) [compound 63] | > 20% | > 20%
Oc1ccccc1C(CCN1CCCN(Cc2ccc(Cl)cc2)CC1)c1ccccc1 (stereo not shown) [compound 64] | > 20% | > 20%
COc1ccc(C(CCN2CCCN(Cc3ccc(Cl)cc3)CC2)c2ccc(OC)cc2)cc1 [compound 65] | > 20% | > 20%
CS(=O)(=O)c1ccc(CN2CCCN(CCC(O)(c3ccccc3)c3ccccc3)CC2)cc1 [compound 106] | > 20% | > 20%
Cc1ccc(C(O)(CCN2CCCN(Cc3ccc(Cl)cc3)CC2)c2ccc(C)cc2)cc1 [compound 108] | > 20% | > 20%
Oc1cccc(C(O)(CCN2CCCN(Cc3ccc(Cl)cc3)CC2)c2cccc(O)c2)c1 [compound 109] | > 20% | > 20%
Oc1ccc(C(O)(CCN2CCCN(Cc3ccc(Cl)cc3)CC2)c2ccc(O)cc2)cc1 [compound 123] | > 20% | > 20%
OC(CCN1CCCN(Cc2ccncc2)CC1)(c1ccccc1)c1ccccc1 [compound 258] | > 20% | > 20%
